This experiment has as its system Pseudomonas aeruginosa. Description: Antimicrobial activity against Pseudomonas aeruginosa ATCC 27853 assessed as zone of inhibition at 50 ug per disc after 24 hrs by disc diffusion assay. It counts as functional.

Regarding GENTAMICIN, the inhibition zone (IZ) turned out to be 18 mm.

(Values after ChEMBL document CHEMBL4138198, “Synthesis of new 1-benzyl tetrahydropyridinylidene ammonium salts and their antimicrobial and anticellular activities” (Eur J Med Chem, 2018).)
